Here are results for 86 sequences from the supplement of paper PMC3334620.

The full ranking holds about 33,000 sequences; the median of “E-score (-0.5 to 0.5)” is about -0.016, and the highest 2% start at about 0.3. Some of the results follow.

The assay deals with T1, Yer184c (UniProt P39961).
T1 sequence: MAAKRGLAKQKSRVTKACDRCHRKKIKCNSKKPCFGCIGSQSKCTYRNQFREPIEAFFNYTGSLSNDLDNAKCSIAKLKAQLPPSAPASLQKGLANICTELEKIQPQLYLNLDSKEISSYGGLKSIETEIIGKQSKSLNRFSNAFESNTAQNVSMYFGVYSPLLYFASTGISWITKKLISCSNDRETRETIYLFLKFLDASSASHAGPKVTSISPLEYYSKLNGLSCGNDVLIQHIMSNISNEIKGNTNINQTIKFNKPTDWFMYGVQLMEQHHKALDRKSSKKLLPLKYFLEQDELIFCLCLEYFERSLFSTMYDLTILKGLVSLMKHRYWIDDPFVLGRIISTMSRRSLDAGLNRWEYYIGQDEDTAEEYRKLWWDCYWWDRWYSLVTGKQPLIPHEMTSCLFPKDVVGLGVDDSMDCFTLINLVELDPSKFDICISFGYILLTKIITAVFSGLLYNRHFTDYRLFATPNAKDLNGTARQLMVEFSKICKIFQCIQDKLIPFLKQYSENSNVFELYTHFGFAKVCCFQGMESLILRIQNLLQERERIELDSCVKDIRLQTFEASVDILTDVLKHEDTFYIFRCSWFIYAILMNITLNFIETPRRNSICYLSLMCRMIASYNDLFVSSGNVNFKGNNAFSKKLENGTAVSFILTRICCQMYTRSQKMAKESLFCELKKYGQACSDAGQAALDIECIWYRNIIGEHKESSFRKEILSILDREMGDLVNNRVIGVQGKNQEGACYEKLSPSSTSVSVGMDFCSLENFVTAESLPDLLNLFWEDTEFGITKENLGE
The assay can be described thus: PBM E-score (8-mer binding enrichment) (E-score (-0.5 to 0.5)); higher = stronger / more preferred TF binding. The settings on record: protein concentration: 100 nM; construct: GST-full length. In short, it runs like this: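 Using PURExpress in vitro transcription/translation, GST-tagged yeast transcription factors were made in full-length or DNA-binding-domain form. These were applied at about 100-200 nM to double-stranded universal all-10-mer Agilent arrays, and bound protein was detected with fluorescent anti-GST. Scans were normalised with masliner before the Universal PBM Analysis Suite assigned E-scores to ungapped eight-base words pooled with their reverse complements.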
With CCTTCTGC, the “PBM E-score” value is -0.276.
On to GACGACCA, for which the “PBM E-score” value is -0.0396.
In the case of AATCAGCA, the “PBM E-score” value worked out at 0.143.
As for ACAACATA, the “PBM E-score” value was 0.0797.
As for CCATCACG, the “PBM E-score” value was -0.043.
As for ACACGACC, the “PBM E-score” value was -0.00384.
For the sequence GTAGTGCA, the “PBM E-score” value was -0.0021.
Consider AGACTTGG, for which the “PBM E-score” value is -0.231.
Take CTGCTCAC: the “PBM E-score” value was -0.188.
As to GAACTGTA, the “PBM E-score” value turned out to be 0.205.
CTGTCAAC: the “PBM E-score” value was -0.0849.
The result for GGCATCAA reads -0.0951.
For the sequence CAAATAGG, the “PBM E-score” value is -0.157.
In the case of ACCTGCGA, the “PBM E-score” value was -0.18.
For GCCGGTAA, the “PBM E-score” value is 0.346.
Regarding CCGGCCTC, the “PBM E-score” value stood at 0.132.
Take CATCTCGA: the “PBM E-score” value is -0.202.
For the sequence ATAGTTCC, the “PBM E-score” value came out at 0.17.
For AACTAACT, the “PBM E-score” value was 0.0519.
Take GCAGAACC: the “PBM E-score” value was -0.19.
Turning to CAAATTCG, the “PBM E-score” value was 0.102.
The result for TCAAAAGA reads 0.102; that for CAAAACCA, 0.105.
Take GAATCTTA: the “PBM E-score” value was 0.179.
As to ATAAGTGC, the “PBM E-score” value is -0.193.
The same measure for GATTCACA: -0.0882.
Regarding AAAACCTG, the “PBM E-score” value is -0.236.
Consider GTCTCAAA, for which the “PBM E-score” value was -0.0364.
In the case of GTGGCTGA, the “PBM E-score” value was -0.0655.
In the case of GTAGGGAA, the “PBM E-score” value is -0.15.
As for GTCTTACA, the “PBM E-score” value was -0.156.
As to ACAGCTTC, the “PBM E-score” value was -0.0965.
For the sequence CGGGATGA, the “PBM E-score” value was determined as 0.158.
The same measure for CAGTTTAG: -0.134; for CAAACCTC: -0.259.
With CCCTCGTC, the “PBM E-score” value was -0.193.
The same measure for CGTCCTGA: -0.197; for CTCAAAAC: 0.126.
As to CTCTAAGA, the “PBM E-score” value stood at 0.106.
The result for GACTCAAA reads -0.00661; that for AACGCTCA, -0.229.
On to CCTGCCCC, for which the “PBM E-score” value is -0.308.
The result for CCACTTAG reads -0.135.
Turning to CTATTATC, the “PBM E-score” value came out at 0.208.
Take CAAACACC: the “PBM E-score” value was determined as 0.0299.
The same measure for ATTCCGGC: 0.393; for CAATCTGC: -0.14; for GATGAGTA: 0.0629.
On to CAGCGTCC, for which the “PBM E-score” value was -0.0361.
For AATTATGC, the “PBM E-score” value was 0.129.
The result for GCCTCAGC reads -0.0649; that for CATCTATA, 0.0535; that for CCGCCCGG, 0.299.
As to GAGCAGTA, the “PBM E-score” value is 0.0566.
The result for AATGATCA reads 0.138; that for GCATTCGC, -0.135; that for CTACTTTA, 0.0993.
On to CTCGTGTC, for which the “PBM E-score” value was -0.0515.
The result for TGAGTCAA reads -0.131; that for AGCCAGCA, -0.263; that for AACGGTAC, 0.187.
The same measure for ATAGCTAA: -0.156; for ATGGCTAA: -0.103.
In the case of AAACGCGG, the “PBM E-score” value was determined as 0.181.
The same measure for AAGATTCT: 0.113; for GGATGTAC: -0.0797.
With GTTCACGA, the “PBM E-score” value is -0.0289.
CTCTACAG: the “PBM E-score” value is -0.0337.
With CAGTTCTA, the “PBM E-score” value was determined as 0.0121.
The result for AGCGACCA reads 0.0141.
The result for ATTAAGCC reads 0.277; that for CTCTGAAA, -0.0131; that for ATCTCCCG, 0.00149.
As to CGTTAGTC, the “PBM E-score” value was determined as 0.0876.
As to ACTAGGAA, the “PBM E-score” value is -0.177.
CCGCCGAC: the “PBM E-score” value is 0.109.
Take ATCGAATC: the “PBM E-score” value came out at 0.0788.
On to GCAAATGC, for which the “PBM E-score” value is -0.0849.
AATTAGGT: the “PBM E-score” value was determined as 0.215.
The same measure for CGGACGTA: 0.0548; for ACATGTCC: 0.0547.
Consider CAGTACAA, for which the “PBM E-score” value is -0.0268.
Turning to AAAAGCTT, the “PBM E-score” value was determined as 0.107.
GTACGGGA: the “PBM E-score” value was -0.0559.
The result for AATCTCAC reads -0.0253; that for GGCAGTAC, 0.00589.
